One experiment addresses Flag-REV7 (human) (UniProt Q9UI95). In words: co-IP.
The next experiment addresses T1, Flag-FAM35A (human) (UniProt Q86V20).
T1 sequence: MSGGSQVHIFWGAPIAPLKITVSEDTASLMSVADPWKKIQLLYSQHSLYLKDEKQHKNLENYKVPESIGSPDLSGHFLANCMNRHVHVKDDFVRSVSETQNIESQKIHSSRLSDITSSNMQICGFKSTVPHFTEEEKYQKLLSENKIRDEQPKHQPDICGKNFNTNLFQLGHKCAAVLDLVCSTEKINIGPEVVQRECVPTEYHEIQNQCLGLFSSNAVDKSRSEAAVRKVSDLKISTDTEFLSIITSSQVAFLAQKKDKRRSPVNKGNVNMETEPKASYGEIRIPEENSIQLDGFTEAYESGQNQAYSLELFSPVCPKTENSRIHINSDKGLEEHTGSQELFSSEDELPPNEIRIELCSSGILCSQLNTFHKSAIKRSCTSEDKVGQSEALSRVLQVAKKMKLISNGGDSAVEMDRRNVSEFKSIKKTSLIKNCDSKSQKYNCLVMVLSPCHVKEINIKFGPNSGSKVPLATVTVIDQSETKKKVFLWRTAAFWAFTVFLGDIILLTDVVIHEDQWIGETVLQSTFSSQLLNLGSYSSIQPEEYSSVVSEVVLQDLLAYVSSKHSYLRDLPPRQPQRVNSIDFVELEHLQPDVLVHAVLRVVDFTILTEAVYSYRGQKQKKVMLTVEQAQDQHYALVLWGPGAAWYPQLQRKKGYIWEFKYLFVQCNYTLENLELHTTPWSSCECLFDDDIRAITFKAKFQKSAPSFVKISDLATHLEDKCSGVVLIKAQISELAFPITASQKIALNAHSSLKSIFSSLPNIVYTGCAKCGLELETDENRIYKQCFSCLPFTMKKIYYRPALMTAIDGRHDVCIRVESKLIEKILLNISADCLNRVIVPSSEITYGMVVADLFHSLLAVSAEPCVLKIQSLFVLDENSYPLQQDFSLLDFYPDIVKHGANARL
Nature of the experiment: co-IP.

Protein sequences, listed by entry. Tags and fused reporters are not part of them.
UniProt Q9UI95: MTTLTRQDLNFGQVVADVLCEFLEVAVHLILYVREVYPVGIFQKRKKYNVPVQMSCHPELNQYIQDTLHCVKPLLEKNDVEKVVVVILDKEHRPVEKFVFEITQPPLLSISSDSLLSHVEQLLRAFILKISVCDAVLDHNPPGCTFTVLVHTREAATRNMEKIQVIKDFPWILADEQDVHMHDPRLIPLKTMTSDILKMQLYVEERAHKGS

Results are given in words; binding and its absence hold for the method and conditions named. Binding seen in cells or lysates may run through a third protein. Some entries that bind do so weakly or less than the wild type. Tags and fused reporters may be left off the sequences shown.

B1: GFP-C20orf196 (protein, UniProt Q8IYI0 1-205)
chain: MAARDATSGSLSEESSALDLPSACDIRDYVLQGPSQEANSEAFSSLEFHSFPYSSDVDPDTSNLNIEQNNSWTAENFWLDPAVKGQSEKEEDDGLRKSLDRFYEMFGHPQPGSANSLSASVCKCLSQKITQLRGQESQKYALRSFQMARVIFNRDGCSVLQRHSRDTHFYPLEEGSTSLDDEKPNPGLSKDITHFLLQQNVMKDL
B1: the binding result with Flag-REV7 (human) and with Flag-FAM35A (human) was “binds” each time.

B2: GFP-FAM35A (protein, UniProt Q86V20-2 1-904)
chain: MSGGSQVHIFWGAPIAPLKITVSEDTASLMSVADPWKKIQLLYSQHSLYLKDEKQHKNLENYKVPESIGSPDLSGHFLANCMNRHVHVKDDFVRSVSETQNIESQKIHSSRLSDITSSNMQICGFKSTVPHFTEEEKYQKLLSENKIRDEQPKHQPDICGKNFNTNLFQLGHKCAAVLDLVCSTEKINIGPEVVQRECVPTEYHEIQNQCLGLFSSNAVDKSRSEAAVRKVSDLKISTDTEFLSIITSSQVAFLAQKKDKRRSPVNKGNVNMETEPKASYGEIRIPEENSIQLDGFTEAYESGQNQAYSLELFSPVCPKTENSRIHINSDKGLEEHTGSQELFSSEDELPPNEIRIELCSSGILCSQLNTFHKSAIKRSCTSEDKVGQSEALSRVLQVAKKMKLISNGGDSAVEMDRRNVSEFKSIKKTSLIKNCDSKSQKYNCLVMVLSPCHVKEINIKFGPNSGSKVPLATVTVIDQSETKKKVFLWRTAAFWAFTVFLGDIILLTDVVIHEDQWIGETVLQSTFSSQLLNLGSYSSIQPEEYSSVVSEVVLQDLLAYVSSKHSYLRDLPPRQPQRVNSIDFVELEHLQPDVLVHAVLRVVDFTILTEAVYSYRGQKQKKVMLTVEQAQDQHYALVLWGPGAAWYPQLQRKKGYIWEFKYLFVQCNYTLENLELHTTPWSSCECLFDDDIRAITFKAKFQKSAPSFVKISDLATHLEDKCSGVVLIKAQISELAFPITASQKIALNAHSSLKSIFSSLPNIVYTGCAKCGLELETDENRIYKQCFSCLPFTMKKIYYRPALMTAIDGRHDVCIRVESKLIEKILLNISADCLNRVIVPSSEITYGMVVADLFHSLLAVSAEPCVLKIQSLFVLDENSYPLQQDFSLLDFYPDIVKHGANARL
As for B2, the binding entry with Flag-REV7 (human) was “binds”.

The values are drawn from article doi:10.1101/365460.
